{"source": "PubChem BioAssay AID2726", "about": "(Broad Institute, 2010)", "note": "The shares of active, inactive and inconclusive entries below differ from those in the screen. Activity calls are given as the source filed them.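 How the source made its calls: active means every replicate shows growth inhibition above 50%; inconclusive means at least half, but not all, replicates pass that cutoff; inactive means fewer than half of replicates pass it.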", "data": [{"assay": "inhibitors of JMH597 bacterial growth – JMH597 strain, OD600 absorbance, counter-screen for AI-2 quorum sensing project, confirmation (AID 2726)", "settings": "Vibrio harveyi JMH597 growth, 9 h, at 7.5 µM, hits give high values, lacks LuxN and CqsS sensors", "values": [{"smiles": "COc1cccc(Oc2cn[nH]c2-c2ccc(O)cc2O)c1", "growth inhibition": "inconclusive: 54.1%"}, {"smiles": "Clc1cccc(OCc2nnc(-c3ccccc3Br)o2)c1", "growth inhibition": "inconclusive: 58%"}, {"smiles": "O=C(Nc1ccc(Cl)cc1)Nn1cnc2ccccc2c1=O", "growth inhibition": "inactive: 1.52%"}, {"smiles": "O=C(NCCOc1ccccc1)c1cccc(S(=O)(=O)NCc2ccccc2)c1", "growth inhibition": "inconclusive: 50.2%"}, {"smiles": "CCc1ccc(CN(C)C(=O)c2cc(COc3cccc(C(F)(F)F)c3)on2)nc1", "growth inhibition": "inconclusive: 59.6%"}, {"smiles": "COc1ccc(Oc2cn[nH]c2-c2ccc(O)cc2O)cc1", "growth inhibition": "inconclusive: 54.3%"}, {"smiles": "C(=C\\c1ccccc1)/CSc1nnc(-c2cccnc2)o1", "growth inhibition": "inactive: 18.7%"}, {"smiles": "O=C(NNc1nc(-c2ccc(Br)cc2)cs1)c1ccco1", "growth inhibition": "active: 62.8%"}, {"smiles": "O=S(=O)(Nc1cccc(Oc2ccc(Cl)cc2)n1)c1ccc(F)cc1", "growth inhibition": "inconclusive: 74.3%"}, {"smiles": "O=C(/C=C/c1ccc(F)cc1)NCCC1=CCCCC1", "growth inhibition": "inconclusive: 85.4%"}, {"smiles": "Cc1sc2ncnc(OCC(=O)c3ccc(S(=O)(=O)N4CCCC4)cc3)c2c1C", "growth inhibition": "inconclusive: 63.1%"}]}]}
